No constants are given. Whether binding was seen depends on the method and setting. Binding seen in cells or lysates may run through a third protein. Binding can be weak; no strength is given.
Target: Flag-tagged WD40 domain of FBXW7 (mouse) (UniProt Q8VBV4)
Assay: co-IP

By UniProt entry, the sequences of proteins in these tests, tags left out. Where a name states a change or a piece, a line headed by the entry shows the natural chain unless it says otherwise.
UniProt Q8VBV4: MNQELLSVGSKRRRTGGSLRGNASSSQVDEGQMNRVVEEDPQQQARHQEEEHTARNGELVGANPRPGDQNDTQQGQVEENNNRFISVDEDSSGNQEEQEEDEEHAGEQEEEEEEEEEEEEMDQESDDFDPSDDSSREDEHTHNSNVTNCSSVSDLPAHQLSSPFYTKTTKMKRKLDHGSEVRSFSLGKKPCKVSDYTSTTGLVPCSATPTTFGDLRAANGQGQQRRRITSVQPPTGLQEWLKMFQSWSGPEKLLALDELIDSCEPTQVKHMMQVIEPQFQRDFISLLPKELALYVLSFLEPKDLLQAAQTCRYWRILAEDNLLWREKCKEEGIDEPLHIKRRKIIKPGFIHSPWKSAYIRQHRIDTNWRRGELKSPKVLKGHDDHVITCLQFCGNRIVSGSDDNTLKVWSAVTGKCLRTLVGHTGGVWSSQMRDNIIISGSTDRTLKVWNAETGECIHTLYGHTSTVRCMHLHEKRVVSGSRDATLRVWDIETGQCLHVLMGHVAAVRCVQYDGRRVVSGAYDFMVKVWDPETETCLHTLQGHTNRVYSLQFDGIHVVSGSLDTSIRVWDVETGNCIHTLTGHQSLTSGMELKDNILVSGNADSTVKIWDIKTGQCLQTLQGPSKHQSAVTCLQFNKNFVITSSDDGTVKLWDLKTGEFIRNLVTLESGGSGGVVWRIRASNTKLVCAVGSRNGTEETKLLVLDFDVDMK

binding: binds
Substance: Myc-tagged SHP2 (from UniProt P35235-1 1-597)

Reference: PMC5355826
